Test results: PMC10861811
Results are given in words; binding and its absence hold for the method and conditions named. In cells and extracts the contact can be indirect. Some binding calls cover weakened binding; strength is not graded here. Sequences can lack the tags named with a protein.

Biological target: T1, NFIL3-GFP (Nuclear Factor, IL-3 Regulated) (human) (UniProt Q16649)
T1 sequence: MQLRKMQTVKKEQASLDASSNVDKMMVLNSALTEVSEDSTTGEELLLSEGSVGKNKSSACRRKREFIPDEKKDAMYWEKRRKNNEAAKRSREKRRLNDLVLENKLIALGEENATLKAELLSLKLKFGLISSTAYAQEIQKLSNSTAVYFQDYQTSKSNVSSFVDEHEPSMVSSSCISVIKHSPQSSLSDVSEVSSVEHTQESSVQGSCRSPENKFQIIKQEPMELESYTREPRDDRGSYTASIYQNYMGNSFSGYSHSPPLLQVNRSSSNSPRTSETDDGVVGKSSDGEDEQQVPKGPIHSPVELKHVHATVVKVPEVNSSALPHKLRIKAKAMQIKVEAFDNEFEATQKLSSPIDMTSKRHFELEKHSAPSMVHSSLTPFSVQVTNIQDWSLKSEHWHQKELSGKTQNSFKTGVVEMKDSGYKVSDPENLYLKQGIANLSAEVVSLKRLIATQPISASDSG
Assay: co-IP; SKOV3 cells transiently transfected, lysed in IP lysis buffer; mouse GFP antibody or mouse isotype control IgG overnight at 4 °C, protein A/G PLUS agarose beads, five washes, Western blot

binding: binds
Substance: p53 (pmCherry-C1-P53) (from UniProt P04637 1-393)
